Measurements reported in PubChem BioAssay AID1259254 (NCATS, 2017).
In all, the deposit lists about 59,000 reagents; shown is a part drawn at random. About 1,550 of all reagents (2.6%) were called active. 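G2 share is only a proxy for re-replication; each gene was hit by three separate siRNAs, and active genes were retested.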 Raw values vary from plate to plate and are shown uncorrected. The numbers tell different reagents against one gene apart. The record does not give: the amount of reagent.

Screen: 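Finding genes that stop cells copying their DNA twice in one cycle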 (primary screen)
Cell system: human HCT116 colorectal cancer cells
Reagents: single siRNA against human genes
Time to read-out: 3 days
Measurement: 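Imaged Hoechst DNA stain sorts each cell into a cycle phase by DNA amount; per plate, G2 fraction set to 0% for non-targeting and 100% for GMNN siRNA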
Reading the numbers: G2 robust z-score and G2 cells, % of GMNN control: higher = more G2 cells, more excess DNA replication; raw share of cells in G2: higher = larger share of cells with G2 DNA content
Rule for the call: 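An siRNA counts as active if its G2 robust z-score lies at least 5 MADs above the screen median; here such calls match roughly 38% of GMNN control or more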

no.	gene symbol	siRNA no.	G2 robust z-score	G2 cells, % of GMNN control	raw share of cells in G2 (%)	activity call
1	GARIN2 (golgi associated RAB2 interactor family member 2)	1	1.38	12.7	6.78	inactive
2	GARIN2 (golgi associated RAB2 interactor family member 2)	2	-0.799	-2.65	2.65	inactive
3	GARIN2 (golgi associated RAB2 interactor family member 2)	3	1.11	10.8	6.57	inactive
4	AMD1 (adenosylmethionine decarboxylase 1)	1	1.23	11.6	8.67	inactive
5	AMD1 (adenosylmethionine decarboxylase 1)	2	4.16	32.3	16.6	inactive
6	AMD1 (adenosylmethionine decarboxylase 1)	3	1.12	10.8	8.03	inactive
7	ZNF565 (zinc finger protein 565)	1	1.42	13	7.56	inactive
8	ZNF565 (zinc finger protein 565)	2	-0.564	-1	2.82	inactive
9	ZNF565 (zinc finger protein 565)	3	2.61	21.3	11	inactive
10	SEC11C (SEC11 homolog C, signal peptidase complex subunit)	1	1.01	10.1	9.86	inactive
11	SEC11C (SEC11 homolog C, signal peptidase complex subunit)	2	-0.961	-3.79	3.23	inactive
12	SEC11C (SEC11 homolog C, signal peptidase complex subunit)	3	-0.475	-0.374	4.12	inactive
13	RGL4 (ral guanine nucleotide dissociation stimulator like 4)	1	0.627	7.38	7.8	inactive
14	RGL4 (ral guanine nucleotide dissociation stimulator like 4)	2	-0.469	-0.331	5.8	inactive
15	RGL4 (ral guanine nucleotide dissociation stimulator like 4)	3	5.8	43.8	20.7	active

Continued (4 carried over from the part before).
no.	gene symbol	siRNA no.	G2 robust z-score	G2 cells, % of GMNN control	raw share of cells in G2 (%)	activity call
12	SEC11C (SEC11 homolog C, signal peptidase complex subunit)	3	-0.475	-0.374	4.12	inactive
13	RGL4 (ral guanine nucleotide dissociation stimulator like 4)	1	0.627	7.38	7.8	inactive
14	RGL4 (ral guanine nucleotide dissociation stimulator like 4)	2	-0.469	-0.331	5.8	inactive
15	RGL4 (ral guanine nucleotide dissociation stimulator like 4)	3	5.8	43.8	20.7	active
16	BZW1 (basic leucine zipper and W2 domains 1)	1	-0.796	-2.64	4.14	inactive
17	BZW1 (basic leucine zipper and W2 domains 1)	2	-0.564	-1	3.52	inactive
18	BZW1 (basic leucine zipper and W2 domains 1)	3	0.416	5.9	5.55	inactive
19	MRPL51 (mitochondrial ribosomal protein L51)	1	-0.228	1.37	4.38	inactive
20	MRPL51 (mitochondrial ribosomal protein L51)	2	-0.512	-0.636	4.31	inactive
21	MRPL51 (mitochondrial ribosomal protein L51)	3	-1.01	-4.14	1.95	inactive
22	SFTPD (surfactant protein D)	1	0.446	6.1	7.74	inactive
23	SFTPD (surfactant protein D)	2	-1.1	-4.77	2.91	inactive
24	SFTPD (surfactant protein D)	3	0.752	8.26	6.69	inactive
25	PRM3 (protamine 3)	1	-0.529	-0.752	4.08	inactive
26	PRM3 (protamine 3)	2	0.214	4.47	7.5	inactive
27	PRM3 (protamine 3)	3	0.151	4.03	5.69	inactive
28	DRAM1 (DNA damage regulated autophagy modulator 1)	1	0.403	5.8	6.75	inactive
29	DRAM1 (DNA damage regulated autophagy modulator 1)	2	0.652	7.56	7.27	inactive
30	DRAM1 (DNA damage regulated autophagy modulator 1)	3	1.51	13.6	7.48	inactive
